These results are taken from article doi:10.1101/068262 (bioRxiv, 2016).

Amino acid sequences for entries named in this document (tags omitted).
UniProt O00472: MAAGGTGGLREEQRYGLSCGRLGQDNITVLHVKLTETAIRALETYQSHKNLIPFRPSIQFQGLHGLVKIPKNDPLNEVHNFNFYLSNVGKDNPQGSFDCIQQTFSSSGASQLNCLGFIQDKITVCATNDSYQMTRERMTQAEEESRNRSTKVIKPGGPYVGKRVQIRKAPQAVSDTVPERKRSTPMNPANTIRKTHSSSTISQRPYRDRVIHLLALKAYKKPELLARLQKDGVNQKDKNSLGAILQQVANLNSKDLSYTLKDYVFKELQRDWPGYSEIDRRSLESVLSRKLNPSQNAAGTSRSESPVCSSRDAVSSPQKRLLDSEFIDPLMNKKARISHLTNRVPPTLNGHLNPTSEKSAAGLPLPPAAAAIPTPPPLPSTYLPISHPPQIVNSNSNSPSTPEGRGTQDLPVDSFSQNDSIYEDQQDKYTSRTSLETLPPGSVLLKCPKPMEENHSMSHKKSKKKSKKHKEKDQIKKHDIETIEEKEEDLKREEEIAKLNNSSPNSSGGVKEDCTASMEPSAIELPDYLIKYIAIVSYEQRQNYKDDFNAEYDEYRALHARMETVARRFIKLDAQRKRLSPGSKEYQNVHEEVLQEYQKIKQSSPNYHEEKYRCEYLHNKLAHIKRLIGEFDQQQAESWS

These are yes or no findings as the source states them, for the method shown. Binding seen in cells or lysates may run through a third protein. Some binding calls cover weakened binding; strength is not graded here.

The assay has as its target HA-tagged wild-type ELL2 (human) (UniProt O00472). In words: co-IP.

B1: AFF1 in nuclear extracts (protein, UniProt P51825 1-1210)
chain: MAAQSSLYNDDRNLLRIREKERRNQEAHQEKEAFPEKIPLFGEPYKTAKGDELSSRIQNMLGNYEEVKEFLSTKSHTHRLDASENRLGKPKYPLIPDKGSSIPSSSFHTSVHHQSIHTPASGPLSVGNISHNPKMAQPRTEPMPSLHAKSCGPPDSQHLTQDRLGQEGFGSSHHKKGDRRADGDHCASVTDSAPERELSPLISLPSPVPPLSPIHSNQQTLPRTQGSSKVHGSSNNSKGYCPAKSPKDLAVKVHDKETPQDSLVAPAQPPSQTFPPPSLPSKSVAMQQKPTAYVRPMDGQDQAPSESPELKPLPEDYRQQTFEKTDLKVPAKAKLTKLKMPSQSVEQTYSNEVHCVEEILKEMTHSWPPPLTAIHTPSTAEPSKFPFPTKDSQHVSSVTQNQKQYDTSSKTHSNSQQGTSSMLEDDLQLSDSEDSDSEQTPEKPPSSSAPPSAPQSLPEPVASAHSSSAESESTSDSDSSSDSESESSSSDSEENEPLETPAPEPEPPTTNKWQLDNWLTKVSQPAAPPEGPRSTEPPRRHPESKGSSDSATSQEHSESKDPPPKSSSKAPRAPPEAPHPGKRSCQKSPAQQEPPQRQTVGTKQPKKPVKASARAGSRTSLQGEREPGLLPYGSRDQTSKDKPKVKTKGRPRAAASNEPKPAVPPSSEKKKHKSSLPAPSKALSGPEPAKDNVEDRTPEHFALVPLTESQGPPHSGSGSRTSGCRQAVVVQEDSRKDRLPLPLRDTKLLSPLRDTPPPQSLMVKITLDLLSRIPQPPGKGSRQRKAEDKQPPAGKKHSSEKRSSDSSSKLAKKRKGEAERDCDNKKIRLEKEIKSQSSSSSSSHKESSKTKPSRPSSQSSKKEMLPPPPVSSSSQKPAKPALKRSRREADTCGQDPPKSASSTKSNHKDSSIPKQRRVEGKGSRSSSEHKGSSGDTANPFPVPSLPNGNSKPGKPQVKFDKQQADLHMREAKKMKQKAELMTDRVGKAFKYLEAVLSFIECGIATESESQSSKSAYSVYSETVDLIKFIMSLKSFSDATAPTQEKIFAVLCMRCQSILNMAMFRCKKDIAIKYSRTLNKHFESSSKVAQAPSPCIASTGTPSPLSPMPSPASSVGSQSSAGSVGSSGVAATISTPVTIQNMTSSYVTITSHVLTAFDLWEQAEALTRKNKEFFARLSTNVCTLALNSSLVDLVHYTRQGFQQLQELTKTP
With B1, the binding result was “binds”.
